From ChEMBL document CHEMBL3414553, “Novel imidazo[2,1-b]-1,3,4-thiadiazoles as promising antifungal agents against clinical isolate of Cryptococcus neoformans” (2015)
≈ marks a conversion by molar mass, not a printed value.

System: Mycobacterium tuberculosis
Assay: Antimicrobial activity against Mycobacterium tuberculosis H37Rv after 24 hrs by two-fold broth microdilution method
Format: functional

For CO[C@H]1/C=C/O[C@@]2(C)Oc3c(C)c(O)c4c(O)c(c(/C=N/N5CCN(C)CC5)c(O)c4c3C2=O)NC(=O)/C(C)=C\C=C\[C@H](C)[C@H](O)[C@@H](C)[C@@H](O)[C@@H](C)[C@H](OC(C)=O)[C@@H]1C [RIFAMPIN], the MIC was 6.7 µM (≈ 5.51 µg/mL).
